# Laboratory results taken from the supplement of paper PMC10849652.
# Amino acid sequences for entries named in this document (tags omitted). A change or cut given only in a name is not applied to a line headed by its entry.
# UniProt Q03933: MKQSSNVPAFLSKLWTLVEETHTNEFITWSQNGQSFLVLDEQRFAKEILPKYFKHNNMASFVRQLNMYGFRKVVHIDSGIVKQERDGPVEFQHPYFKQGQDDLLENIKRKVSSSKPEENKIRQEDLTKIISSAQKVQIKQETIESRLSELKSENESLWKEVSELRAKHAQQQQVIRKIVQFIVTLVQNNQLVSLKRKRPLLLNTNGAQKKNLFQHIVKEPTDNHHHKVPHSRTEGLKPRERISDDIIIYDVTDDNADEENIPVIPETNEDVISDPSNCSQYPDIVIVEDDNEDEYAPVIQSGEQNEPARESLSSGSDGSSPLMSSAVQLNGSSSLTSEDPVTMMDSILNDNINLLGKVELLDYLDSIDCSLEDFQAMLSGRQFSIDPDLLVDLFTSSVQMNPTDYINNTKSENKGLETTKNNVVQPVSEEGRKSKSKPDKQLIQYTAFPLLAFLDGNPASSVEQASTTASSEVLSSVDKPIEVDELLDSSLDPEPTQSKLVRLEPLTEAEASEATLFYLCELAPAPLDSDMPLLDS
# UniProt Q15011: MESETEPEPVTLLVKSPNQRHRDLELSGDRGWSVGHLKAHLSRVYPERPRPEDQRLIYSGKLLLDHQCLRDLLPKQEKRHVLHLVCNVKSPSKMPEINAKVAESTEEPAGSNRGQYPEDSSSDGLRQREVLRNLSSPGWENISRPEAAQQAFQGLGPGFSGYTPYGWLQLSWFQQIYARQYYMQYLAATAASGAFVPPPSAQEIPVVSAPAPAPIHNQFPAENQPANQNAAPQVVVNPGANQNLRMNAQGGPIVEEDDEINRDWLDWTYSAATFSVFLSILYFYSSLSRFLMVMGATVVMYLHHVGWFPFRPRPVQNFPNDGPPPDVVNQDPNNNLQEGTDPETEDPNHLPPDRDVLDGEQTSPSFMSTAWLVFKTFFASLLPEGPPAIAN
# UniProt P17483: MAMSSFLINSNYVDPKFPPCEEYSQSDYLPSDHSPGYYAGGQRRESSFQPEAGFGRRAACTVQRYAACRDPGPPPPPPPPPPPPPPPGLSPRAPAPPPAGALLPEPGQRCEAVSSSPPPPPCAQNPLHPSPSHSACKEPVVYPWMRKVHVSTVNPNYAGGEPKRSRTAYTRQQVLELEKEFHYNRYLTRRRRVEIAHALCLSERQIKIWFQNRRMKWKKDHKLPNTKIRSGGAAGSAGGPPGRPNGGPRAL
# UniProt Q15651: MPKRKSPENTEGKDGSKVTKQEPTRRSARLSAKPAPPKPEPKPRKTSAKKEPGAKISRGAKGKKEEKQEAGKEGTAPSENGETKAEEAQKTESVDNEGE
# UniProt P50135: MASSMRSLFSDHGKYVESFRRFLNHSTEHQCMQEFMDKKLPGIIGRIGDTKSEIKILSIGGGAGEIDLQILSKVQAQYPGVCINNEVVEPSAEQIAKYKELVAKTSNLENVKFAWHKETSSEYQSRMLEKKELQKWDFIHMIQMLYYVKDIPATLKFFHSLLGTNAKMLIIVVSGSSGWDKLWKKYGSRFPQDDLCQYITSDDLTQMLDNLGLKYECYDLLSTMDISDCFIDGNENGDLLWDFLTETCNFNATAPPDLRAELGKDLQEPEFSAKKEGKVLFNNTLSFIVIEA
# UniProt Q9NRZ9: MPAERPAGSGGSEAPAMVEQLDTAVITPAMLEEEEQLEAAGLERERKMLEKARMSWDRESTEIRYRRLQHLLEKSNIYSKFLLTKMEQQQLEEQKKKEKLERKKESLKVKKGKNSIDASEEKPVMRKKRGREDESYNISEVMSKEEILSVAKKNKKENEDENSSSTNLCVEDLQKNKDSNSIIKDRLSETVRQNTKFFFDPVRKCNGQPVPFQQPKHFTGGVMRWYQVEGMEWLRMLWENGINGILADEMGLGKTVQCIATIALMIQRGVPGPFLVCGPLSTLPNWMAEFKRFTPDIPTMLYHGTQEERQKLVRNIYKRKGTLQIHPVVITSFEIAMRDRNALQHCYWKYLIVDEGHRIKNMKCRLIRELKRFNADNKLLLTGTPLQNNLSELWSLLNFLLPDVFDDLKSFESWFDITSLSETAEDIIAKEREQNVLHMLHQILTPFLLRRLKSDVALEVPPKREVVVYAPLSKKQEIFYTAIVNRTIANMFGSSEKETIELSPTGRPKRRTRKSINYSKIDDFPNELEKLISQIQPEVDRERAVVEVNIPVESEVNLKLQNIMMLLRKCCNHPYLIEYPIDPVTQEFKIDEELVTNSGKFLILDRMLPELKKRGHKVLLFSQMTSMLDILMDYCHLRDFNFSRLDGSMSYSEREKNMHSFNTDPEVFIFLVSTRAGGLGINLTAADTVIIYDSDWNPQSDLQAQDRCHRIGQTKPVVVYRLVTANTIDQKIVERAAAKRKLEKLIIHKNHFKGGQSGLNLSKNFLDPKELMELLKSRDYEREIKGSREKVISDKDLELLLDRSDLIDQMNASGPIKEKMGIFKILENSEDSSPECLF
# UniProt Q96MH2: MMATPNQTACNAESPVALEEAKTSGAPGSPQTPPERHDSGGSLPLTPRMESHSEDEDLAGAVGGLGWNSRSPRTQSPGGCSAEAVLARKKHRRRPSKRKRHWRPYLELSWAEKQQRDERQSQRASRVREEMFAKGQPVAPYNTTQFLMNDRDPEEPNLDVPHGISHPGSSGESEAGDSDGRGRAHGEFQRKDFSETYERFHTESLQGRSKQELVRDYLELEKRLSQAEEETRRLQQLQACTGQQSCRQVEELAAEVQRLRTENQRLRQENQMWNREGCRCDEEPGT
# UniProt P17096: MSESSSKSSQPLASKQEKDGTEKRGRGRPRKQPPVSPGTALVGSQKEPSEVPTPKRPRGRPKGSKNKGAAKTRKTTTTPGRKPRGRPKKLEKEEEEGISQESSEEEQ
# UniProt Q5SSJ5: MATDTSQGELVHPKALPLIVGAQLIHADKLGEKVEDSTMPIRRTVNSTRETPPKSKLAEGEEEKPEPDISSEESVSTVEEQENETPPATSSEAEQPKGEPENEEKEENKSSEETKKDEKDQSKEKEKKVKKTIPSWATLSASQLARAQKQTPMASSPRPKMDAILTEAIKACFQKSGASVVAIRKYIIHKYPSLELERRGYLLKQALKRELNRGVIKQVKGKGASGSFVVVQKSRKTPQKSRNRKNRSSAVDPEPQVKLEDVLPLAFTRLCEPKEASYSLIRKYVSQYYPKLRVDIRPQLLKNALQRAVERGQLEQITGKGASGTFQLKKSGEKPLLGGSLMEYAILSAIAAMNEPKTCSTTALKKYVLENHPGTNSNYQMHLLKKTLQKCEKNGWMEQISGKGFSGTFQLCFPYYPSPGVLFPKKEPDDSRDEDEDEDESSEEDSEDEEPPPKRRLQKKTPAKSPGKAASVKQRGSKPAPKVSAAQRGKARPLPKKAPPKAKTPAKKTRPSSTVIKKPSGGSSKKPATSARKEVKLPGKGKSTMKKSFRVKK
# UniProt P14210, whole entry, looked up: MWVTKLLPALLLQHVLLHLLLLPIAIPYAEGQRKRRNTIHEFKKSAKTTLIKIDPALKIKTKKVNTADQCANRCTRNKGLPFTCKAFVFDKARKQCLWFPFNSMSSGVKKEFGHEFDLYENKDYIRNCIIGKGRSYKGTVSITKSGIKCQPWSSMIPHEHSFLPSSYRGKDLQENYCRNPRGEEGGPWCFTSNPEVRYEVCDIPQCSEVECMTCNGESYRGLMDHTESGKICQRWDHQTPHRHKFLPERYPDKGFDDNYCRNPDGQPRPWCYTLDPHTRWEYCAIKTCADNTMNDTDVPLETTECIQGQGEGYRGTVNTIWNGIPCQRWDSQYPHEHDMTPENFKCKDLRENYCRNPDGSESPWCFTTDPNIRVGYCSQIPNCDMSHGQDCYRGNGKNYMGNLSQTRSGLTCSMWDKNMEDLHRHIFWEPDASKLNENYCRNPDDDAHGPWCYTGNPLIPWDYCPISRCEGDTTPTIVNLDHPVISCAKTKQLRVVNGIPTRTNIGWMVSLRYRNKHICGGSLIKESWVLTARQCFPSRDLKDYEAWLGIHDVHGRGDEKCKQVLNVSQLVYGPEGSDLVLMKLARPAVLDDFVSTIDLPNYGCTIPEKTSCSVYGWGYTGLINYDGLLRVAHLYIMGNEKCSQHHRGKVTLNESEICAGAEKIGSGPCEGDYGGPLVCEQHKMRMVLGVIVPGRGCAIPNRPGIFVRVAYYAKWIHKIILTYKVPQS
# UniProt Q9Y241: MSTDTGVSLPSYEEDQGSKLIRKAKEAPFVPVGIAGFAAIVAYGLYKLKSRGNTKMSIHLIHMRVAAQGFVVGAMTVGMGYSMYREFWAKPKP
# UniProt Q14469: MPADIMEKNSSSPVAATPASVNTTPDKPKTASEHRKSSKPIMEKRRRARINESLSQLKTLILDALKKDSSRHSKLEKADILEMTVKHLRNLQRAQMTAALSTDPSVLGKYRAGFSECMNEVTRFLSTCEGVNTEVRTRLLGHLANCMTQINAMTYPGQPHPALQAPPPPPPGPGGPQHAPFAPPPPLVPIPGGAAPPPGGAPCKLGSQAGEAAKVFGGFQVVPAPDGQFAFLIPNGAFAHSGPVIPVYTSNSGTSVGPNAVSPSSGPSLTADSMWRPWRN
# UniProt Q96ED9: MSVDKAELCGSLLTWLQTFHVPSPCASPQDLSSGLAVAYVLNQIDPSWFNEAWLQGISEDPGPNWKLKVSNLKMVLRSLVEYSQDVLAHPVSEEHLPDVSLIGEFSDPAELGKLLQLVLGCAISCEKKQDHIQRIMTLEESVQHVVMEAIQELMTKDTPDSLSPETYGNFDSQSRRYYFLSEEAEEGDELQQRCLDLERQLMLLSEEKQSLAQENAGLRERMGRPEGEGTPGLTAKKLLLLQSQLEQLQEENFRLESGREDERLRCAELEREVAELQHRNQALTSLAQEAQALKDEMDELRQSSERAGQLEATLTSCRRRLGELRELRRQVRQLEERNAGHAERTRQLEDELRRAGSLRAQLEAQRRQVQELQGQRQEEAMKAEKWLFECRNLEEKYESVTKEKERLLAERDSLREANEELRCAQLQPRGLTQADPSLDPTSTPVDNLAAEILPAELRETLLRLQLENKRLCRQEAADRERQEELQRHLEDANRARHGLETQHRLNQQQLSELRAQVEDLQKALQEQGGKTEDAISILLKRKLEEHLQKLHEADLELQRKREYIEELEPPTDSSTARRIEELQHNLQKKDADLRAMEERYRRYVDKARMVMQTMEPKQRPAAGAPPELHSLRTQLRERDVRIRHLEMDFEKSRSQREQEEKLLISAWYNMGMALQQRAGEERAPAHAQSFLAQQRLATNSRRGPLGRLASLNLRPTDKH
# UniProt A6NHT5: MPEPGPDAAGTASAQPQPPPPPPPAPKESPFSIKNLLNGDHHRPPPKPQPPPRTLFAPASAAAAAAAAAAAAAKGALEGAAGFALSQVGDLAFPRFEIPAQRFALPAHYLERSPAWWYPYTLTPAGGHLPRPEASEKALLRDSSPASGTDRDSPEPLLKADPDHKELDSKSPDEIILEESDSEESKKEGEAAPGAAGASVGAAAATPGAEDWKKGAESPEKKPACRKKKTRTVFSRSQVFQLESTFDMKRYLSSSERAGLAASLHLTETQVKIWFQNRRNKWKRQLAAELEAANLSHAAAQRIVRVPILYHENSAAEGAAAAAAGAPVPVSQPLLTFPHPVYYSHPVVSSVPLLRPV
# UniProt Q9UJC3, whole entry, looked up: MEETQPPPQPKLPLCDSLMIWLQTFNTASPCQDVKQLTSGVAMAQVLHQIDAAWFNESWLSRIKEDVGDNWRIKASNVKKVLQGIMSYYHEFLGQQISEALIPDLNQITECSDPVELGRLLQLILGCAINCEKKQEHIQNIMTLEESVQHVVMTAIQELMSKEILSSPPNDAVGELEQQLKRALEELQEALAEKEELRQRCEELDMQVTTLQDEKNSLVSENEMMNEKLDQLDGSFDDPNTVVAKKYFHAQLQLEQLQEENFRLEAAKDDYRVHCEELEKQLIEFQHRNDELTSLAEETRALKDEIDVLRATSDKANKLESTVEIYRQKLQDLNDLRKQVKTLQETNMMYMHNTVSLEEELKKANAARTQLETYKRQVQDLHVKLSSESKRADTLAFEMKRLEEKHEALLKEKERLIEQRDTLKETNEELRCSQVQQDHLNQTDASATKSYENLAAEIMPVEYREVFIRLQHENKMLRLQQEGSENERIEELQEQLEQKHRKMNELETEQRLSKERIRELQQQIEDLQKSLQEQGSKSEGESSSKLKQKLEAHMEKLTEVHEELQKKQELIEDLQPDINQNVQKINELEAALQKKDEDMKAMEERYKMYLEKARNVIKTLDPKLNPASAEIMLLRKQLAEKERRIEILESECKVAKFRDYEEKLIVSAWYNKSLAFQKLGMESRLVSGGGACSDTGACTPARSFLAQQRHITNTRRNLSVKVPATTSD
# The list shows a part of the results.
# Compound: NCC(=O)Nc1ccc(-n2nc(C(F)(F)F)cc2-c2ccc3c(ccc4ccccc43)c2)cc1
# Experiment: log2 fold change, soluble protein after heating vs DMSO (PISA); higher = thermal stabilisation; K562 lysate, 10 uM; active = over 0.2 and 3.5 SD of the protein, either way, in both replicates (recomputed)
# Procedure, shortened: (§1)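 Thermal stability, expressed as log-two fold change relative to solvent controls, is given from duplicates. Crude K562 extract in PBS pH 7.4 with 1 mM MgCl2, at 1 mg/mL protein, was treated with 10 μM compound for 30 min and heated in aliquots for 3 min across 48°C-58°C. After pooling, adjustment to 0.5% NP-40 at 4°C and centrifugation at 21,000xg for 90 min, supernatant protein was measured by TMTpro 16plex LC-MS/MS with channel sums equalised.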
row,Target,log2 fold change
1,HNRNPM (UniProt M0QZM1),inactive: 0.125
2,HSF2 (UniProt Q03933),inactive: 0.028
3,HERPUD1 (UniProt Q15011),inactive: -0.064
4,HOXB4 (UniProt P17483),inactive: 0.068

# Compound: O=C(CCCCCCC(=O)Nc1ccccc1)NO [vorinostat]
# Experiment: as above
# Procedure, shortened: as §1
row,Target,log2 fold change
1,HMGN3 (UniProt Q15651),inactive: 0.143
2,HNMT (UniProt P50135),inactive: -0.09
3,HELLS (UniProt Q9NRZ9),inactive: -0.138
4,HRAS (UniProt P01112),inactive: 0.026
5,HEXIM2 (UniProt Q96MH2),inactive: 0.065
6,HMGA1 isoform 2 (UniProt P17096),inactive: 0.205
7,HP1BP3 isoform 5 (UniProt Q5SSJ5),inactive: 0.053
8,HGF (UniProt P14210),inactive: -0.315
9,HIGD1A isoform 2 (UniProt Q9Y241),inactive: 0.064
10,HNRNPUL1 (UniProt M0R247),inactive: 0.197
11,HES1 (UniProt Q14469),inactive: 0.046
12,HLA-E (UniProt P13747),inactive: -0.086
13,HOOK2 (UniProt Q96ED9),inactive: -0.008
14,HMX3 (UniProt A6NHT5),inactive: -0.257
15,HOOK1 (UniProt Q9UJC3),inactive: 0.131
16,HS6ST1 (UniProt O60243),inactive: -0.025

# Compound: O=C(O)c1ccc2c(c1)nc(Nc1cccc(Cl)c1)c1ccncc12 [silmitasertib]
# Experiment: as above
# Procedure, shortened: as §1
row,Target,log2 fold change
1,HMGN3 (UniProt Q15651),inactive: -0.143
2,HNMT (UniProt P50135),inactive: 0.122
3,HELLS (UniProt Q9NRZ9),inactive: -0.029
4,HRAS (UniProt P01112),inactive: -0.008
5,HEXIM2 (UniProt Q96MH2),inactive: -0.091
6,HMGA1 isoform 2 (UniProt P17096),inactive: -0.047
7,HP1BP3 isoform 5 (UniProt Q5SSJ5),inactive: 0.064
8,HGF (UniProt P14210),inactive: 0.163
9,HIGD1A isoform 2 (UniProt Q9Y241),inactive: 0.006
10,HNRNPUL1 (UniProt M0R247),inactive: -0.037
11,HES1 (UniProt Q14469),inactive: 0.18
12,HLA-E (UniProt P13747),inactive: 0.109
13,HOOK2 (UniProt Q96ED9),inactive: -0.068
14,HMX3 (UniProt A6NHT5),inactive: -0.125
15,HOOK1 (UniProt Q9UJC3),inactive: -0.066
16,HS6ST1 (UniProt O60243),inactive: 0.203
